Experimental data from patent US9421204B2, “Oligomer modified diaromatic substituted compounds” (priority 2010, dated 2016).

Experiment: in vitro
Details: human, Caco-2, Papp
Experimental: The objective of this study was to determine the bidirectional Caco-2 permeability of test compounds. Caco-2 monolayers were grown to confluence on collagen-coated, microporous, polycarbonate membranes in 12-well Costar Transwell® plates. Details of the plates and their certification are shown below. The permeability assay buffer for the donor chambers was Hanks Balanced Salt Solution containing 10 mM HEPES and 15 mM glucose (HBSSg) at a pH of 7.4. The buffer in the receiver chambers also contained 1% bovine serum albumin (BSA). The dosing solution concentrations were 10 μM in the assay buffer. Cell monolayers were dosed on the apical side (A to-B) or basolateral side (B-to-A) and incubated at 37° C. with 5% CO2 in a humidified incubator. After 2 hours, aliquots were taken from the receiver and donor chambers. Each determination was performed in duplicate. The lucifer yellow flux was also measured for each monolayer to ensure no damage was inflicted to the cell monolayers during the flux period. All samples were assayed by LC/MS/MS using electrospray ionization.

SMILES: CC(C)NCC(O)COc1ccc(CC(N)=O)cc1 (stereo not shown) [Atenolol]
- Papp: 0.26 ×10⁻⁶ cm/s
